Source: PubChem BioAssay AID493014 (National Center for Advancing Translational Sciences (NCATS), 2011)
About 170 (0.05%) of roughly 340,000 compounds were called active. Inconclusive means that the source gave no clear call. Such entries were picked first, then a sample of the others. Calls follow the shape of the dose curve; as a rule, active = well fitted inhibition curve with a large enough effect in the signal ratio, with a control signal flat (not every such curve was filed as active); inconclusive = small, poorly fitted or top-dose-only effect, or effect the other way, or a change in a side signal; inactive = flat fitted curve, though single readings scatter; the % refers to the signal ratio. Where the call is inconclusive, the potency comes from a doubtful curve fit.

assay: qHTS Assay to Find Inhibitors of Chronic Active B-Cell Receptor Signaling; conditions: ABC-DLBCL IkBa-CBG/CBR reporter, luminescence ratio (green luciferase fused to IkBa over red control in TMD8 lymphoma cells), 4 h; activity change, negative = inhibition: at 46.1 µM (top of the series);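 as to activity change, negative = inhibition: plate controls were basal doxycycline-induced cells for no effect and cells given 10 µM MG132 for full effect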
How it was run: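 TMD8 human ABC-DLBCL cells with doxycycline-inducible IκBα–green luciferase fusion and unfused red luciferase, in 0.5% FBS medium; compounds up to 46 uM, 4 h at 37C. Green/red luminescence ratio, filter-overlap corrected, fitted to concentration-response curves.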
Potency is read from the fitted curve at half-maximal effect.

SMILES | Potency | activity change, negative = inhibition
CCc1ccc(CN(C)C(=O)c2cc(COc3cccc4cnccc34)on2)cc1 | inconclusive: 12.6 µM [falling, partial curve] | –
O=C(NNC(=O)c1cc2cc3ccccc3nc2s1)c1ccc(F)cc1 | – | inactive
Cc1ccc(-c2nn(-c3ccccc3)cc2/C=C/C(=O)Nc2nccs2)cc1 | – | inconclusive: 0.698%
Cc1cc(-c2n[nH]c(=S)n2/N=C/c2cc([N+](=O)[O-])ccc2Cl)n[nH]1 | inconclusive: 29.1 µM [cytotoxic, single point] | –
O=C(CCc1ccccc1)Nc1ccc(N2CCOCC2)c(Cl)c1 | – | inconclusive: 6.15%
Cc1ccc(O)c(C(=O)c2coc(=N)c(C(=O)NC(C)C)c2)c1 | – | inconclusive: 26.2%
COc1ccc(NC(=S)NC(C)c2ccncc2)cc1OC (configuration not stated) | – | inactive
CCOC(=O)c1c(C)[nH]c(C(=O)CSc2nnnn2-c2ccc(C)cc2)c1C | – | inconclusive: 3.23%
CCCC/C=C1\CCc2c([nH]c3ccccc23)C1=O | inconclusive: 15.8 µM [falling, single point] | –
Cc1cc(OC(C)C(=O)N/N=C/CC(C)c2ccccc2)ccc1Cl (configuration not stated) | – | inconclusive: 10.6%
O=C(c1c[nH]c2ccc(S(=O)(=O)N3CCOCC3)cc2c1=O)N1CCCC1 | – | inactive
COC(=O)CCCCC1SCC2NC(=O)NC21O (configuration not stated) | – | inactive
CCCCn1c(=S)[nH]c2c(oc3ccc(Cl)cc32)c1=O | inconclusive: 20.6 µM [falling, partial curve] | –
CCC(Oc1ccccc1)C(=O)Nc1ccccc1N1CCCC1 (configuration not stated) | – | inconclusive: 1.81%
Cc1cccc2sc(NNC(=O)c3cc(-c4cccs4)nc4ccccc34)nc12 | inconclusive: 32.6 µM [falling, partial curve, poor fit] | –
O=C(NCC1CCCCC1)c1cccc(-c2ccc(O)cc2)c1 | inconclusive: 35.5 µM [falling, single point] | –
NS(=O)(=O)c1cccc(NS(=O)(=O)c2ccc(/C=C/C(=O)OCC(=O)c3ccc(Br)cc3)cc2)c1 | – | inconclusive: -20.9%
CCCCC(=O)NC(NC(=S)N1CCOCC1)C(Cl)(Cl)Cl (configuration not stated) | – | inactive
CCn1c(=O)c(C(=O)NNC(=O)c2cccc(Cl)c2)c(O)c2ccccc21 | inconclusive: 7.08 µM [falling, partial curve] | –
Cc1ccc(-n2ncc3c(N(C)C)ncnc32)cc1Cl | – | inconclusive: -0.2%
COc1ccc(-n2c(Cc3cccn3C)nnc2SCC(=O)NCc2ccccc2Cl)cc1 | – | inconclusive: -8.41%
O=C(NC1CCCC1)c1ccc(Br)c(S(=O)(=O)N2CCCCC2)c1 | – | inconclusive: 0.744%

Retrieved one by one from the list above:
SMILES | Potency | activity change, negative = inhibition
CCCC/C=C1\CCc2c([nH]c3ccccc23)C1=O | inconclusive: 15.8 µM [falling, single point] | –
O=C(NCC1CCCCC1)c1cccc(-c2ccc(O)cc2)c1 | inconclusive: 35.5 µM [falling, single point] | –
